PubChem BioAssay AID686938 | Drosophila RNAi Screening Center – 2013

Screen: 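Fly genes required for calcium entry once internal stores are emptied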 (primary screen)
System: Drosophila S2R+ cells
Reagents: long dsRNA against Drosophila genes, about 0.25 µg dsRNA per well, roughly 10,000 cells
Timing: 5 days of knock-down before the calcium assay
Challenge: thapsigargin (SERCA pump blocker) to empty calcium stores; entry signal taken 4 min after adding it
Detection: 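Per-well fluo-4 fluorescence in two replicates, unnormalised, measured in resting cells and 4 min after store depletion by the SERCA blocker thapsigargin; ratio of the two present in few wells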
Scale: calcium entry signal: higher = stronger calcium signal after store depletion; entry to resting ratio: higher = more calcium entry relative to resting level; resting calcium signal: higher = higher resting calcium signal
Rule for the call: 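Called when the plate z-score of the entry-to-rest ratio, mean of duplicates, falls below −3; wells with low overall dye signal (Fmax z below −2) or more than five off-targets excluded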
Calls: active = strongly reduced calcium entry; inactive = no strong reduction
The screen tested about 23,000 reagents; shown is an unselected part of those with a known target gene and a result. In the full data, 75 (0.33%) got an active call. 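Raw plate signals without normalisation; calls rest on plate z-scores that were not deposited; ratio present for only 364 wells.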 The numbers tell different reagents against one gene apart. Names joined by + are all predicted targets of the reagent. Not given: the dose of the treatment.

no.	gene knocked down	dsRNA no.	calcium entry signal, replicate 1 (fluorescence units)	calcium entry signal, replicate 2 (fluorescence units)	entry to resting ratio	resting calcium signal, replicate 1 (fluorescence units)	resting calcium signal, replicate 2 (fluorescence units)	outcome
1	CG10062	1	3.04e7	2.53e7		1.41e7	1.30e7	inactive
2	CG10062	2	2.38e7	2.43e7		1.17e7	1.12e7	inactive
3	trpl	1	3.65e7	3.47e7		1.74e7	1.43e7	inactive
4	trpl	2	4.10e7	3.78e7		1.99e7	1.96e7	inactive
5	Cth	1	4.30e7	4.38e7		2.06e7	1.98e7	inactive
6	CG17168	1	3.64e7	4.44e7		2.25e7	1.86e7	inactive
7	CG10257	1	3.29e7	4.87e7		1.70e7	2.22e7	inactive
8	Spn31A	1	2.36e7	3.44e7		1.19e7	1.65e7	inactive
9	gem	1	4.59e7	4.69e7		1.96e7	2.13e7	inactive
10	gem	2	2.72e7	3.79e7		1.32e7	1.58e7	inactive
11	CG12147	1	5.35e7	3.42e7		2.46e7	1.65e7	inactive
12	CG18530	1	3.19e7	3.40e7		1.57e7	1.70e7	inactive
13	Pgant3	1	4.18e7			2.16e7		inactive
14	CG14628	1	3.51e7	6.80e7	2	1.74e7	2.36e7	inactive
15	Syngr	1	2.60e7	2.57e7		1.49e7	1.48e7	inactive
16	CG15529	1	3.74e7	4.52e7		1.93e7	1.97e7	inactive
17	Npc2g	1	4.13e7	5.58e7		2.17e7	2.35e7	inactive
18	Ugt302E1	1	2.43e7	2.52e7		1.27e7	1.27e7	inactive
19	Mgat4b	1	4.01e7	6.18e7		2.08e7	2.36e7	inactive
20	CG32071	1	2.99e7	4.85e7		1.50e7	2.72e7	inactive
21	CG12009	1	3.74e7	2.54e7		2.53e7	9.91e6	inactive
22	ovm + CG31975	1	2.52e7	3.75e7		1.24e7	2.04e7	inactive
23	CG42819	1	3.22e7	4.84e7		1.56e7	1.92e7	inactive
24	mtgo	1	4.85e7	4.34e7		2.17e7	2.07e7	inactive
25	mtgo	2	4.16e7	3.67e7		1.90e7	1.77e7	inactive
26	mtgo	3	5.59e7			2.69e7		inactive
27	mtgo	4	4.41e7	3.96e7		2.47e7	1.89e7	inactive
28	mtgo	5	3.40e7	3.79e7		1.84e7	1.71e7	inactive
29	bwa	1	2.13e7	4.60e7		1.08e7	1.75e7	inactive
30	bwa	2	3.55e7	3.28e7		1.51e7	1.44e7	inactive
31	Cyp6a17	1	4.37e7	4.25e7		2.01e7	2.09e7	inactive
32	x16	1	3.72e7	3.33e7		2.17e7	1.55e7	inactive
33	x16	2	3.54e7			2.02e7		inactive
34	CG1394	1	3.03e7	3.91e7		1.66e7	1.99e7	inactive
35	MESR4	1	5.00e7	5.32e7		2.62e7	2.83e7	inactive
36	CG18269	1	3.13e7	2.91e7		1.45e7	1.37e7	inactive
37	CG3589	1	4.02e7			2.14e7		inactive
38	Cht6	1	3.95e7	5.11e7		1.87e7	2.41e7	inactive
39	Cht6	2	3.78e7	5.96e7		2.01e7	3.36e7	inactive
40	Cht6	3	3.90e7	5.53e7		1.88e7	2.58e7	inactive
41	Cht6	4	4.71e7	4.18e7		2.39e7	2.10e7	inactive
42	chk	1	3.97e7			2.02e7		inactive
43	CG1637	1	3.63e7	3.41e7		1.82e7	1.73e7	inactive
44	CG1637	2	2.23e7	3.23e7		1.09e7	1.46e7	inactive
45	CG1637	3	3.80e7	5.19e7		1.94e7	2.59e7	inactive
46	tup	1	4.16e7			2.05e7		inactive
47	CG18302	1	4.06e7	4.90e7		1.88e7	2.00e7	inactive
48	pico	1	5.26e7	3.94e7		2.29e7	1.48e7	inactive
49	CG6294 + CG6299	1	3.66e7	2.60e7		1.91e7	1.32e7	inactive
50	CG15563	1	3.56e7	6.41e7		1.96e7	2.57e7	inactive
51	CG7691	1	4.48e7	4.50e7		4.97e7	1.90e7	inactive
52	CG8563	1	2.88e7	4.54e7		1.35e7	1.86e7	inactive
53	CR18228	1	4.74e7	3.82e7		2.27e7	1.77e7	inactive
54	OS9 + Hf	1	4.94e7			2.45e7		inactive
55	Oatp58Da	1	3.70e7	4.41e7		1.85e7	2.02e7	inactive
56	CG30340	1	3.37e7	4.82e7		1.67e7	2.16e7	inactive
57	RpS17	1	8.70e6	9.87e6		6.73e6	6.84e6	inactive
58	CG14605	1	5.04e7	3.81e7		2.44e7	1.77e7	inactive

4 of these entries, set out differently:
gene knocked down | dsRNA no. | calcium entry signal, replicate 1 (fluorescence units) | calcium entry signal, replicate 2 (fluorescence units) | entry to resting ratio | resting calcium signal, replicate 1 (fluorescence units) | resting calcium signal, replicate 2 (fluorescence units) | outcome
chk | 1 | 3.97e7 | – | – | 2.02e7 | – | inactive
CG1637 | 1 | 3.63e7 | 3.41e7 | – | 1.82e7 | 1.73e7 | inactive
CG1637 | 2 | 2.23e7 | 3.23e7 | – | 1.09e7 | 1.46e7 | inactive
CG1637 | 3 | 3.80e7 | 5.19e7 | – | 1.94e7 | 2.59e7 | inactive
